The values that follow come from patent US20220411487A1.

Chains of the proteins cited; added tags and fusions are not shown. Lines headed by an entry give the natural chain unless they say otherwise; changes in a name come on top.
UniProt Q8IU80: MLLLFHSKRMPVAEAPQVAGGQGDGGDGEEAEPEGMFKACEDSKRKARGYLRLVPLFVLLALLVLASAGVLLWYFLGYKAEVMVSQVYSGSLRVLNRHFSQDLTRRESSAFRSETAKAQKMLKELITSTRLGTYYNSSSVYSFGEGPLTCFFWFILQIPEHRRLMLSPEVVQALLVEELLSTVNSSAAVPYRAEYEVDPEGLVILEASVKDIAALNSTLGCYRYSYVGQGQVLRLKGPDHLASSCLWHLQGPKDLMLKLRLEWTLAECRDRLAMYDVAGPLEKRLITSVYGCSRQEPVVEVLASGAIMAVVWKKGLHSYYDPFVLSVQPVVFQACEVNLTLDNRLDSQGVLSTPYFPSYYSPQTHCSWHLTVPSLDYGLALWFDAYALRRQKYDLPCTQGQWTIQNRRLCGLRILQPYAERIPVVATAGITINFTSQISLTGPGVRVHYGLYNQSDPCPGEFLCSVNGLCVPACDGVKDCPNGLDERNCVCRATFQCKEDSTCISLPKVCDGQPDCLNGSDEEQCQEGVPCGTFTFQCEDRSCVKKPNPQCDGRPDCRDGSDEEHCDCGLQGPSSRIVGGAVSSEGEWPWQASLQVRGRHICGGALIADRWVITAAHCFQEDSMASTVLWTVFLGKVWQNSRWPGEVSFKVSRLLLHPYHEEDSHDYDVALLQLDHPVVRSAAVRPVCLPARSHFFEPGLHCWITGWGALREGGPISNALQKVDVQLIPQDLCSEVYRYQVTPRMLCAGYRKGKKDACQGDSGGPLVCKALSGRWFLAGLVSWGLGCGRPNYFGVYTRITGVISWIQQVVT

These are yes or no findings as the source states them, for the method shown. A result given as binding can be weak or reduced; the word gives no strength.

In this assay the target is full length human TMPRSS6 on HEK293 cells (HEK293/hTMPRSS6) (human) (UniProt Q8IU80). In words: flow cytometry.

B1: REGN7999 (antibody, human IgG4 S228P, kappa, V domains shown)
VH: EVQLVESGGGLVQPGGSLRLSCAASGFTFSSYAMTWVRQAPGKGLEWVSAISGSDTSTYYADSVKGRFTISRDNSKNTLFLQMNSLRAEDTAVYYCAKHQDYDFSYYYSAMDVWGQGTTVTVSS
VL: DIQMTQSPSSLSASVGDRVIITCRASQDFNSWLAWYQQKPGKAPKLLIYAASSLQSGVPSRFSGSGSGTDFTLTISSLQPEDFATYYCQQTDSFPFTFGPGTKVDIKR
B1: the binding entry was “binds”.

B2: REGN8023 (antibody, human IgG4 S228P, kappa, V domains shown)
VH: EVQLVESGGGLVKPGGSLRISCAASGFIFVDYAMHWVRQAPGKGLEWVSGISWNSGSIGYADSVKGRFTISRDNAKKSLYLQMSGLRPEDTALYYCVKSGFYYVRSYFDNWGQGTLVTVSS
VL: DIVMTQSPLSLPVTPGEPASISCRSSQSLLDSDDGNTYLDWYLRKPGQSPQLLIYTLSYRASGVPDRFSGSGSGTDFTLKISRVEADDVGVYYCMQRIEFPLTFGGGTKVEIKR
As to B2, the binding entry is “binds”.
